In PubChem BioAssay AID493014 (National Center for Advancing Translational Sciences (NCATS), 2011):
The other results are listed elsewhere or left out. Further columns of the screen follow, without active or inactive calls. Compounds called inactive in the main read-out are mostly missing here. Words in brackets tell the shape of the fitted curve; partial curves, single points and poor fits give uncertain potencies.

Assay: qHTS Assay to Find Inhibitors of Chronic Active B-Cell Receptor Signaling
Settings: ABC-DLBCL IkBa-CBG/CBR reporter, luminescence ratio (green luciferase fused to IkBa over red control in TMD8 lymphoma cells), 4 h
How it was run: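 TMD8 ABC-DLBCL cells carrying doxycycline-inducible green luciferase fused to IkappaBalpha plus unfused red luciferase were exposed to compounds (up to 46 uM) for 4 hrs at 37C. Activity came from the overlap-corrected green/red luminescence ratio.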

[1] = measured here: CBR red luminescence, cell number
[2] = measured here: IkBa-CBG green luminescence

| Compound | AC50 [1] | AC50 [2] |
| --- | --- | --- |
| CCCCSc1ccc(NC(=O)c2cccnc2)cc1 | 29.1 µM [rising, single point] |  |
| O=c1c2ccccc2oc2c1oc1ccccc12 | 0.461 µM [rising, full curve] | 25.9 µM [rising, partial curve, poor fit] |
| O=C(NC1CCCCCC1)c1ccc2c(=O)n3c(nc2c1)CCCCC3 | 20.6 µM [falling, single point] |  |
| Cn1nnc(-c2ccc(OCc3ccccc3F)cc2)n1 | 9.2 µM [rising, partial curve, poor fit] |  |
| CCn1c(CO)nc2c1c(=O)[nH]c(=O)n2Cc1ccccc1 | 6.31 µM [falling, single point] |  |
| Cc1cc(C(=O)Nc2sc3c(c2C#N)CCC(C)C3)no1 (stereo not drawn) | 2.06 µM [rising, full curve, poor fit] |  |
| Nc1nn(-c2ccccc2)nc1C(=O)OCc1ccccc1 | 22.4 µM [falling, single point] |  |
| N/C(CN1CCCC1=O)=N\OC(=O)c1ccc(Cl)cc1 | 2.06 µM [rising, partial curve, poor fit] |  |
| COc1ccc(C2C(C(=O)c3cccs3)=C(O)C(=O)N2Cc2cccnc2)cc1OC (stereo not drawn) | 35.5 µM [falling, single point] |  |
| NC(=O)C1(N2CCCCC2)CCN(c2nc(-c3ccc(Br)cc3)cs2)CC1 | 0.58 µM [falling, partial curve, poor fit] |  |
| Cc1cc(C)cc(N2C(N)=NC(N)=NC2c2cccc(Cl)c2)c1 (stereo not drawn) |  | 35.5 µM [falling, partial curve, poor fit] |
| O=C(N/N=C/C=C\c1ccccc1[N+](=O)[O-])c1cc(-c2ccc3ccccc3c2)n[nH]1 | 9.2 µM [rising, partial curve] |  |
| OC(COc1cccc(OCC(O)CN2CCCC2)c1)CN1CCCC1 (stereo not drawn) | 28.2 µM [falling, single point] |  |
| CCC(=O)c1ccc(N2CCN(C(=O)c3ccc(Br)cc3)CC2)c(F)c1 | 35.5 µM [falling, single point] |  |
| CN(C)CC/C=C1/c2ccccc2Sc2ccc(Cl)cc21 | 2.82 µM [falling, single point] |  |
| Cc1c(CCC(=O)N2CCC(C(=O)NCCCCCC(=O)O)CC2)c(=O)oc2cc3oc4c(c3cc12)CCCC4 | 1.26 µM [rising, full curve, poor fit] |  |
| Cn1c(C(=O)N[C@@H](Cc2ccccc2)C(=O)O)cc2cc(F)ccc21 | 0.708 µM [rising, partial curve, poor fit] |  |
| COc1ccc(CCNCC(O)COc2cccc(Br)c2)cc1 (stereo not drawn) | 35.5 µM [rising, single point] | 35.5 µM [falling, partial curve, poor fit] |
| c1csc(CNc2ccc3c(c2)OCCO3)c1 | 23.1 µM [falling, single point] |  |
| O=C(Nc1ccccc1)Nc1ccc2ncoc2c1 | 11.2 µM [falling, partial curve] |  |
| Cc1ccc(C(=O)NCC(=O)OC(C)C(=O)Nc2ccc(N(C)C)cc2)s1 (stereo not drawn) | 31.6 µM [rising, single point] |  |
| COc1ccccc1Nc1nc2c(s1)CCC2 | 0.631 µM [rising, full curve, poor fit] |  |

| Compound | AC50 [1] | AC50 [2] |
| --- | --- | --- |
| CCc1nc(C)ccc1OCC(=O)O | 0.291 µM [falling, partial curve, poor fit] |  |
| COC(=O)c1ccc(C(=O)N2CCCC(Nc3ccc(F)c(F)c3)C2)cc1 (stereo not drawn) | 2.82 µM [rising, full curve, poor fit] |  |
| CCCCNC(=O)Nc1cnn(CC)c1C(N)=O | 18.4 µM [rising, single point] |  |
| O=C(N/N=C/c1ccc(N2CCOCC2)cc1)c1cccs1 | 11.2 µM [falling, partial curve] |  |
| Cc1ccc(S(=O)(=O)c2nc(S(=O)(=O)c3ccc(C)cc3)c(NCc3ccco3)s2)cc1 | 6.31 µM [rising, partial curve, poor fit] |  |
| Cc1cccc(C(=O)N/N=C/c2cc(Br)c(Br)o2)c1 | 29.1 µM [falling, single point] |  |
| Cc1cccc(N(CC(=O)Nc2ccc(-c3nc4ccc(C)cc4s3)cc2)S(C)(=O)=O)c1 | 10 µM [rising, partial curve, poor fit] |  |
| CCC(C)NC(=O)CSc1nc2cc3c(cc2c(=O)n1CCCCCC(=O)NCc1ccc(OC)cc1)OCO3 (stereo not drawn) | 0.562 µM [rising, full curve] |  |
| Cc1nc2ccccc2nc1N/N=C/c1ccc(O)cc1 | 25.1 µM [falling, single point] |  |
| Cc1sc2ncn(CCn3cnc4sc(C)c(C)c4c3=O)c(=O)c2c1C | 6.51 µM [rising, single point] |  |
| CC1CCCN(CCCOc2ccc(Cl)cc2Br)C1 (stereo not drawn) | 6.51 µM [rising, single point] |  |
| COCCCN1CCN(C2Cc3ccccc3Sc3ccc(Cl)cc32)CC1 (stereo not drawn) | 11.6 µM [falling, single point] |  |
| CCOCCCNC(=O)C1(O)c2ccccc2NC(=O)N1c1ccc(Cl)cc1 (stereo not drawn) | 11.2 µM [rising, partial curve] |  |
| COc1ccccc1N1CCN(S(=O)(=O)c2ccc(-c3cnc(C4CC4)o3)cc2)CC1 | 0.794 µM [falling, full curve, poor fit] |  |
| CCOC(=O)Oc1ccc2c(=O)c(Oc3cccc(C)c3)coc2c1 | 20 µM [falling, single point] |  |
| Cc1ccc2[nH]c3c(=O)n(CCc4cnc[nH]4)cnc3c2c1 | 0.447 µM [falling, full curve] |  |
| O=C(COc1ccc(Cl)cc1Cl)N/N=C/c1ccccn1 | 1.41 µM [rising, single point] |  |
| COc1ccccc1NC(=O)C1CCN(S(=O)(=O)c2ccc3c(c2)NC(=O)C(C)S3)CC1 (stereo not drawn) | 8.91 µM [falling, partial curve] |  |
| COc1ccc(N/C=C2\CCc3ccccc3C2=O)cc1 | 15.8 µM [falling, partial curve] |  |
| Cc1ccc(N2CCN(CC(O)COc3cccc4ccccc34)CC2)cc1 (stereo not drawn) | 0.891 µM [rising, full curve, poor fit] |  |
| O=C(NCCN1CCCCCC1)c1ccc(N2CCCC2=O)cc1 | 20.6 µM [rising, single point] |  |
| COc1cc2c(cc1OC)CN(Cc1cccs1)CC2 | 3.26 µM [rising, partial curve, poor fit] |  |

Part of the list above in order of molar mass, smallest number first:

| Compound | AC50 [1] | AC50 [2] |
| --- | --- | --- |
| Cc1nc2ccccc2nc1N/N=C/c1ccc(O)cc1 | 25.1 µM [falling, single point] |  |
| O=C(N/N=C/c1ccc(N2CCOCC2)cc1)c1cccs1 | 11.2 µM [falling, partial curve] |  |
| COC(=O)c1ccc(C(=O)N2CCCC(Nc3ccc(F)c(F)c3)C2)cc1 (stereo not drawn) | 2.82 µM [rising, full curve, poor fit] |  |

Further results:

| Compound | AC50 [1] | AC50 [2] |
| --- | --- | --- |
| O=C(CCS(=O)(=O)c1ccccc1)Nc1nnc(C(F)(F)F)s1 | 35.5 µM [falling, single point] |  |
| CCOC(=O)c1c(C)c2c(n1C)CCC/C2=N\O | 35.5 µM [rising, single point] |  |
| Cc1coc2c(C)c3oc(=O)c(CC(=O)N[C@@H](CC(C)C)C(=O)O)c(C)c3cc12 | 11.2 µM [falling, partial curve] |  |
| CC(C)(O)C#Cc1ccc(CN2CCN(Cc3ccsc3)C(CCO)C2)s1 (stereo not drawn) | 5.62 µM [rising, single point] |  |
| Cc1ccc(/C=C/C(=O)c2ccccc2)cc1 | 4.61 µM [falling, full curve, poor fit] |  |
| COC(=O)c1ccc(CSc2nnc(CS(=O)Cc3ccc(Br)cc3)n2-c2ccccc2)cc1 (stereo not drawn) | 20.6 µM [falling, partial curve, poor fit] |  |
| COC(=O)C1=CN(Cc2cccs2)C=C(C(=O)OC)C1c1cccc(Cl)c1 | 3.55 µM [falling, partial curve, poor fit] |  |
| O=[N+]([O-])c1ccc(/C=N/NC(=S)Nc2ccccc2)o1 | 25.9 µM [rising, single point] | 29.1 µM [falling, single point] |
| O=C(O)c1ccc(/C=N/NC(=O)c2ccc(NS(=O)(=O)c3cccs3)cc2)cc1 | 3.16 µM [falling, partial curve, poor fit] |  |
| CN(C)c1ccc(/C=N/n2c(-c3ccccc3Br)n[nH]c2=S)cc1 | 14.1 µM [rising, single point] |  |
| COc1ccccc1NC(=O)CNC(c1ccccc1)c1ccccc1 | 11.2 µM [falling, partial curve] |  |
| Cc1cc(C)c2nc(NC(=O)C3CC(=O)N(Cc4ccco4)C3)sc2c1 (stereo not drawn) | 3.16 µM [falling, partial curve, poor fit] |  |
| COc1ccc(C=NCCCN2CCOCC2)cc1 | 25.9 µM [falling, partial curve, poor fit] |  |
| Cc1cccc(N2CCN(CC(O)COc3ccccc3Cl)CC2)c1 (stereo not drawn) | 12.6 µM [falling, partial curve, poor fit] |  |
| CCOc1cc(C(c2c(C)[nH][nH]c2=O)c2c(C)[nH][nH]c2=O)cc([N+](=O)[O-])c1O | 10 µM [falling, partial curve, poor fit] |  |
| COCCNC(=O)c1ccc2c(c1)C(=O)c1ccccc1-2 | 5.01 µM [rising, full curve] |  |
| COc1ccc(C(=O)N=c2sc3ccccc3n2C)cc1OC | 3.98 µM [rising, full curve] |  |
| CC(C)(C)C(=O)Nc1nc2ccc(S(C)(=O)=O)cc2s1 | 35.5 µM [falling, single point] |  |
| C(=N\Nc1ccccn1)/c1ccc(N2CCOCC2)cc1 | 2.82 µM [rising, partial curve] |  |
| Cc1ccc(NC(=O)CSc2nnc(-c3cccs3)n2Cc2ccco2)cc1 | 35.5 µM [falling, single point] |  |
| COc1ccccc1CNc1ncnc2cc(Cl)ccc12 | 3.55 µM [falling, single point] |  |
